Values quoted from earlier work, collected in US20130338126A1, “Ophthalmic Suspension for Ocular Use” (Allergan, Inc., priority 2008, published 2013).
At least one compound was matched to its structure with a doubt left.

System: bacterial flora in the eye

Compound: C[C@H]1COc2c(N3CCN(C)CC3)c(F)cc3c(=O)c(C(=O)O)cn1c23 [levofloxacin]
- rate of bacterial reduction in the conjunctiva (gatifloxacin 0.3% / levofloxacin 0.5% ophthalmic solutions, one week pre-operative): 70.0%
- post-operative infection (endophthalmitis) (one week pre-operative treatment, cataract surgery): None of the individuals treated develop a post-operative infection
